The supplement of paper PMC8975748
Counter-ions that a name gives are not always drawn. ± gives the standard deviation of the averaged measurements. Some of the results follow. Values are raw readings; no control value is given beside them.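 One yeast strain harboring four plasmids, each bearing a fluorescent protein plus an amino-acid or uracil synthesis gene, founds the community. Random loss of plasmids produces mixed prototroph and auxotroph subpopulations. Cells were fixed, then counted with automated confocal fluorescence imaging, with DMSO-treated wells as vehicle reference.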

system: Saccharomyces cerevisiae BY4741 SeMeCo community; experiment: imaged cell count per well (cells); higher = more cells; details: 10 µM; 24 h; SM minimal medium
Protocol: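 Same SeMeCo high-content imaging drug screen: Selleck FDA-approved drugs at 10 µM, 24 h in SM medium, 384-well plates, 3 replicates.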

Row | SMILES | imaged cell count per well
1 | CC1CCc2cc(F)cc3c(=O)c(C(=O)O)cn1c23 (stereo not given) [Flumequine] | 28200 ± 3200
2 | Oc1ccc(C2CNCCc3c2cc(O)c(O)c3Cl)cc1 (stereo not given) [Fenoldopam mesylate] | 18300 ± 17000
3 | CN1[C@@H](CC(=O)c2ccccc2)CCC[C@H]1C[C@H](O)c1ccccc1 [Lobeline hydrochloride] | 25400 ± 7400
4 | Fc1ccc([C@@H]2CCNC[C@H]2COc2ccc3c(c2)OCO3)cc1 [Paroxetine HCl] | 20600 ± 6600
5 | CC(C)COc1ccc(CNC(=O)N(Cc2ccc(F)cc2)C2CCN(C)CC2)cc1 [Pimavanserin] | 21700 ± 8800
6 | Nc1nc2c(ncn2COCCO)c(=O)[nH]1 [Aciclovir] | 20900 ± 6500
7 | CC1=C(C(=O)O)N2C(=O)[C@@H](NC(=O)[C@H](N)C3=CCC=CC3)[C@H]2SC1 [Cefradine] | 21500 ± 3300
8 | CS(=O)(=O)c1ccc(C2=C(c3ccccc3)C(=O)OC2)cc1 [Rofecoxib] | 27200 ± 4800
9 | Fc1ccc([C@@H]2CCNC[C@H]2COc2ccc3c(c2)OCO3)cc1 [Paroxetine mesylate] | 24600 ± 4800
10 | CS(=O)(=O)c1ccc([C@@H](O)[C@@H](CF)NC(=O)C(Cl)Cl)cc1 [Florfenicol] | 23900 ± 6700
11 | CCCCOc1cc(C(=O)OCCN(CC)CC)ccc1N [Oxybuprocaine HCl] | 18400 ± 9900
12 | CO/N=C(\C(=O)N[C@@H]1C(=O)N2C(C(=O)O)=C(CSC(=O)c3ccco3)CS[C@H]12)c1csc(N)n1 [Ceftiofur] | 21200 ± 8100
13 | NC(=O)[C@@H]1CC[C@@H]2CN1C(=O)N2OS(=O)(=O)O [Avibactam sodium] | 15500 ± 5800
14 | CN(C)c1cc(NC(=O)CNC(C)(C)C)c(O)c2c1C[C@H]1C[C@H]3[C@H](N(C)C)C(O)=C(C(N)=O)C(=O)[C@@]3(O)C(O)=C1C2=O [Tigecycline] | 19400 ± 4200
15 | COCC1=C(C(=O)OC(C)OC(=O)OC(C)C)N2C(=O)[C@@H](NC(=O)/C(=N\OC)c3csc(N)n3)[C@H]2SC1 (stereo not given in full) [Cefpodoxime proxetil] | 25100 ± 7000
16 | CN(C/C=C/C#CC(C)(C)C)Cc1cccc2ccccc12 [Terbinafine HCl] | 21900 ± 3600
17 | Cc1ccnc(NS(=O)(=O)c2ccc(N)cc2)n1 [Sulfamerazine] | 21700 ± 6500
18 | Cc1cc(NS(=O)(=O)c2ccc(N)cc2)no1 [Sulfamethoxazole sodium] | 25400 ± 10000
19 | Cc1ccc(Sc2ccccc2N2CCNCC2)c(C)c1 | 23600 ± 1300
20 | CC1=CC[C@@](O)(C(C)C)CC1 [Terpinen-4-ol] | 20500 ± 1800

Row | SMILES | imaged cell count per well
21 | CO/N=C(\C(=O)N[C@@H]1C(=O)N2C(C(=O)O)=CCS[C@H]12)c1csc(N)n1 [Ceftizoxime sodium] | 25300 ± 7200
22 | CC1(C)S[C@@H]2[C@H](NC(=O)[C@H](N)c3ccc(O)cc3)C(=O)N2[C@H]1C(=O)O [Amoxicillin] | 19500 ± 3400
23 | COc1cccc2c1C(=O)c1c(O)c3c(c(O)c1C2=O)C[C@@](O)(C(=O)CO)C[C@@H]3O[C@H]1C[C@H](N)[C@@H](O)[C@H](C)O1 [Epirubicin HCl] | 21400 ± 7200
24 | CCNC(=O)[C@@H]1CCCN1C(=O)[C@H](CCCNC(=N)N)NC(=O)[C@H](CC(C)C)NC(=O)[C@@H](CC(C)C)NC(=O)[C@H](Cc1ccc(O)cc1)NC(=O)[C@H](CO)NC(=O)[C@H](Cc1c[nH]c2ccccc12)NC(=O)[C@H](Cc1c[nH]cn1)NC(=O)[C@@H]1CCC(=O)N1 [Leuprolide Acetate] | 22700 ± 7000
25 | C#C[C@]1(O)CC[C@H]2[C@@H]3CCC4=CC(=O)CC[C@@H]4[C@H]3C(=C)C[C@@]21CC [Etonogestrel] | 24100 ± 6700
26 | Cc1ccc(Sc2ccccc2N2CCNCC2)c(C)c1 [Vortioxetine] | 26000 ± 5100
27 | Cc1c(Cl)cccc1Nc1ccccc1C(=O)O [Tolfenamic Acid] | 22600 ± 4500
28 | Cc1nc(C)c(Cl)c(O)c1Cl [Clopidol] | 25400 ± 5000
29 | COC(=O)Nc1nc2cc(Sc3ccccc3)ccc2[nH]1 [Fenbendazole] | 26000 ± 1300
30 | CN(C)C[C@@H]1CCn2cc(c3ccccc32)C2=C(C(=O)NC2=O)c2cn(c3ccccc23)CCO1 | 21400 ± 2800
31 | CC(C(=O)O)c1ccc(C(=O)c2cccs2)cc1 (stereo not given) [Suprofen] | 23800 ± 4500
32 | COc1ccc2c3c1O[C@H]1C[C@@H](O)C=C[C@@]31CCN(C)C2 [Galanthamine] | 21200 ± 1800
33 | COc1nc2ccc(Br)cc2cc1[C@@H](c1ccccc1)[C@@](O)(CCN(C)C)c1cccc2ccccc12 [Bedaquiline fumarate] | 33000 ± 9700
34 | CN[C@H]1CC[C@@H](c2ccc(Cl)c(Cl)c2)c2ccccc21 [Sertraline HCl] | 25700 ± 1600
35 | CC[C@H]1OC(=O)[C@H](C)[C@@H](O[C@H]2C[C@@](C)(OC)[C@@H](O)[C@H](C)O2)[C@H](C)[C@@H](O[C@@H]2O[C@H](C)C[C@H](N(C)C)[C@H]2O)[C@](C)(O)C[C@@H](C)CN[C@H](C)[C@@H](O)[C@]1(C)O [Azathramycin] | 26000 ± 4900
36 | CCCOc1ccc(C(=O)OCCN(CC)CC)cc1N [Proparacaine HCl] | 20600 ± 6400
37 | NCC[C@H](O)C(=O)N[C@@H]1C[C@H](N)[C@@H](O[C@H]2O[C@H](CN)[C@@H](O)[C@H](O)[C@H]2O)[C@H](O)[C@H]1O[C@H]1O[C@H](CO)[C@@H](O)[C@H](N)[C@H]1O [Amikacin hydrate] | 19700 ± 1800
38 | Cc1cccc(C)c1NC(=O)C1CCCCN1C (stereo not given) [Mepivacaine] | 23300 ± 12000
39 | NC12CC3CC(CC(C3)C1)C2 [Amantadine HCl] | 21400 ± 2200
40 | C[C@H]1[C@H](NC(=O)/C(=N\OC(C)(C)C(=O)O)c2csc(N)n2)C(=O)N1S(=O)(=O)O [Aztreonam] | 19300 ± 4300

Looked up one by one from the entries so far, two records:
Row | SMILES | imaged cell count per well
37 | NCC[C@H](O)C(=O)N[C@@H]1C[C@H](N)[C@@H](O[C@H]2O[C@H](CN)[C@@H](O)[C@H](O)[C@H]2O)[C@H](O)[C@H]1O[C@H]1O[C@H](CO)[C@@H](O)[C@H](N)[C@H]1O [Amikacin hydrate] | 19700 ± 1800
8 | CS(=O)(=O)c1ccc(C2=C(c3ccccc3)C(=O)OC2)cc1 [Rofecoxib] | 27200 ± 4800
